Some of the results follow.
Compound: Cc1cc(ccc1-c1ccccc1)C(=O)N1CCCN(CC1)C(=O)CCl [compound 10]
Assay: probe-labelled cysteine peptide fold change vs DMSO (competition) (log2 fold change); higher = less target engagement (more negative = stronger competition)
Settings: THP-1, incubation time: 4 h
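Note: competitive profiling in live THP-1 cells: cysteine peptides tagged with an iodoacetamide desthiobiotin (IA-DTB) probe, intensity after compound treatment relative to DMSO-treated cells.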

Sequences of proteins named here, by UniProt entry; tags and fusion partners are left off. A change or cut given only in a name is not applied to a line headed by its entry.
UniProt Q15910, whole entry, looked up: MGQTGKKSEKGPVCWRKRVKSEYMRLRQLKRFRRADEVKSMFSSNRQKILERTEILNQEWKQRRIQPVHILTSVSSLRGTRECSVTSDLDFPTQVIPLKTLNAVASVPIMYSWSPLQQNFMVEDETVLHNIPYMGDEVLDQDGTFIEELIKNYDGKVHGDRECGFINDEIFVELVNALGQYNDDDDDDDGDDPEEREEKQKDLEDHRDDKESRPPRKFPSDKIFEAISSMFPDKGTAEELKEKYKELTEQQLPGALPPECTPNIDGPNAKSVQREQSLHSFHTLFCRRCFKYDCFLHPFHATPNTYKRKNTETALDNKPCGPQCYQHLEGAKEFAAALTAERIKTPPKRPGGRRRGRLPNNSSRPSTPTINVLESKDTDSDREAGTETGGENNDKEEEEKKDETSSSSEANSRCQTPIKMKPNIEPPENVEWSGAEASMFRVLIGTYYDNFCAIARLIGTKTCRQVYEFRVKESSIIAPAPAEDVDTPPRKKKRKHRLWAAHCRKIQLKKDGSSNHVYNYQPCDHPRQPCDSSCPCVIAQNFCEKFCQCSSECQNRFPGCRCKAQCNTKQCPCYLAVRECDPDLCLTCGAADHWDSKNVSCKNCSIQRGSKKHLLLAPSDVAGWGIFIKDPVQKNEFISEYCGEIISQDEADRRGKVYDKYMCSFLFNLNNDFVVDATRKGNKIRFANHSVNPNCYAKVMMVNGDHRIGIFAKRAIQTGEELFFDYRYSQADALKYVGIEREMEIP
UniProt Q13158: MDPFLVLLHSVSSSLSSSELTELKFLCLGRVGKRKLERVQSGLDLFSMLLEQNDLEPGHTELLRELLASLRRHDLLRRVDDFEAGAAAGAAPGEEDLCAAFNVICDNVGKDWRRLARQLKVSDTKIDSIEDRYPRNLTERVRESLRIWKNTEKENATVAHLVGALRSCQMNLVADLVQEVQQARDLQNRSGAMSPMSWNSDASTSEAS
UniProt P38117: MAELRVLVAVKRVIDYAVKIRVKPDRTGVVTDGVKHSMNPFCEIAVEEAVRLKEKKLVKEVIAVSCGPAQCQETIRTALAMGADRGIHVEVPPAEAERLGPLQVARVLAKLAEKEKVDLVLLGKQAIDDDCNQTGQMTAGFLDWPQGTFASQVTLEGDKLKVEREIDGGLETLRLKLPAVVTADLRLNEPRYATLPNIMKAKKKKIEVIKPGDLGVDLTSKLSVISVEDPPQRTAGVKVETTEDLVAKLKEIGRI
UniProt Q9BYI3: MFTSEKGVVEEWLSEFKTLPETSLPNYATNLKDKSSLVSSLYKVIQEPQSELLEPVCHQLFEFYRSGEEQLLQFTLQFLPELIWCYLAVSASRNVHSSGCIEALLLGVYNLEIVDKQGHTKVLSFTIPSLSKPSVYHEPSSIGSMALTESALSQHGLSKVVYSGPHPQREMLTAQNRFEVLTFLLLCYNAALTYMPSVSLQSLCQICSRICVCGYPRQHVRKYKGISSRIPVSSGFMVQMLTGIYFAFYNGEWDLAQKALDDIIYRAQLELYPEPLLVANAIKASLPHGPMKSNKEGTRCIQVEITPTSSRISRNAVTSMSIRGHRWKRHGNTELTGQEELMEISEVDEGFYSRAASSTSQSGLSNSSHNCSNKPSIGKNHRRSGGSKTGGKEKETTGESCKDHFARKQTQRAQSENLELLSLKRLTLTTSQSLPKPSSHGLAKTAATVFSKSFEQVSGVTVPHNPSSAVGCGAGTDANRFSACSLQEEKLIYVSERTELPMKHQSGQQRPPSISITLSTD
UniProt Q01469, whole entry, looked up: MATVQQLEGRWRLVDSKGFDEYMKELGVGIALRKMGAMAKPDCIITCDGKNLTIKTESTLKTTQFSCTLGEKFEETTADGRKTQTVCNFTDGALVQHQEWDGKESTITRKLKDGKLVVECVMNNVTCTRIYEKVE
UniProt O43909: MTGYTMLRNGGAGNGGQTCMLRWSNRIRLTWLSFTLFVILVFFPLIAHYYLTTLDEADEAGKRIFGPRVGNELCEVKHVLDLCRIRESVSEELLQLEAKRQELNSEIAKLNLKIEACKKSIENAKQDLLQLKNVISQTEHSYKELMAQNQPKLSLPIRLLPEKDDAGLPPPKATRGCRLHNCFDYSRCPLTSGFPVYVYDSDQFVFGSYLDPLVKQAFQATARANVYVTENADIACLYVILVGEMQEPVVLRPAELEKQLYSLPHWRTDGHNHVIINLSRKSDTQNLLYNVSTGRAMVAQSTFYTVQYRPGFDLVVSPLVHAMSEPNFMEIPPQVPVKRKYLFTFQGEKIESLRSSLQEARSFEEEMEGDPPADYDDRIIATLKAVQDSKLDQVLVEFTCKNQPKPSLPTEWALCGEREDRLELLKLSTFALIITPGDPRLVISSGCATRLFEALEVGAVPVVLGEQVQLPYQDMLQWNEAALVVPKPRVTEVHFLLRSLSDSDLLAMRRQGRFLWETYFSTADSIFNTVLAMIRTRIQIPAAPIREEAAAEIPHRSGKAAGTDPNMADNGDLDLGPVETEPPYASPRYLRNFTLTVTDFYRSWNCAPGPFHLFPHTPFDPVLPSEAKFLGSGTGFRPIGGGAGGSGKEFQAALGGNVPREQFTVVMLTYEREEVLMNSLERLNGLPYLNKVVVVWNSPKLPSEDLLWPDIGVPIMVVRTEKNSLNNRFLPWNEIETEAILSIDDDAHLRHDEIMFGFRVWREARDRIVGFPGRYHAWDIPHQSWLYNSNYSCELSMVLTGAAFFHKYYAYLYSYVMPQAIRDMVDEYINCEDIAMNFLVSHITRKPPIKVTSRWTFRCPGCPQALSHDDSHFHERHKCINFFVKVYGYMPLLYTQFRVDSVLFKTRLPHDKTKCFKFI
UniProt Q5T8I3: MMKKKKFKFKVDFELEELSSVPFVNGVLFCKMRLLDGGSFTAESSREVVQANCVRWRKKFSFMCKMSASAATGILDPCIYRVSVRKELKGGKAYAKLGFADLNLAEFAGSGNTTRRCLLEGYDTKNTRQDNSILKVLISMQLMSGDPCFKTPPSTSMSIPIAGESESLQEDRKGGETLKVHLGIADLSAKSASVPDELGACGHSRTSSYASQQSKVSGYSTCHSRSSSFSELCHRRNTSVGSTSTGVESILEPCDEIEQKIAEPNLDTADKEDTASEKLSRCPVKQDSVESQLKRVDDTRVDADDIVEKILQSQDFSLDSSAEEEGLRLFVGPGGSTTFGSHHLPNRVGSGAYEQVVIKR
UniProt Q96DZ1: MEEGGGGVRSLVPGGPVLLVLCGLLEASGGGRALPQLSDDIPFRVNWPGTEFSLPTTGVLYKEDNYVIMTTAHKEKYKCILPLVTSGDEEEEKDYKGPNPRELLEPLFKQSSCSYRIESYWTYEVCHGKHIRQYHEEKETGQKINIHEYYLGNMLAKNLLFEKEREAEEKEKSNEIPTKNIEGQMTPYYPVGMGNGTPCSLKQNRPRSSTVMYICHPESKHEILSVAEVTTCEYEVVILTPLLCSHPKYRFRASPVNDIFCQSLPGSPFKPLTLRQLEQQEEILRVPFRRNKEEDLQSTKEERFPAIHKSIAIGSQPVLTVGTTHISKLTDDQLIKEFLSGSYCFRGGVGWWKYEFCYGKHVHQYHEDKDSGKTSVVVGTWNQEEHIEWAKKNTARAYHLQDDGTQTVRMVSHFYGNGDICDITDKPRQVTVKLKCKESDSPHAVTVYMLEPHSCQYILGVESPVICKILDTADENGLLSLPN
UniProt Q06265, whole entry, looked up: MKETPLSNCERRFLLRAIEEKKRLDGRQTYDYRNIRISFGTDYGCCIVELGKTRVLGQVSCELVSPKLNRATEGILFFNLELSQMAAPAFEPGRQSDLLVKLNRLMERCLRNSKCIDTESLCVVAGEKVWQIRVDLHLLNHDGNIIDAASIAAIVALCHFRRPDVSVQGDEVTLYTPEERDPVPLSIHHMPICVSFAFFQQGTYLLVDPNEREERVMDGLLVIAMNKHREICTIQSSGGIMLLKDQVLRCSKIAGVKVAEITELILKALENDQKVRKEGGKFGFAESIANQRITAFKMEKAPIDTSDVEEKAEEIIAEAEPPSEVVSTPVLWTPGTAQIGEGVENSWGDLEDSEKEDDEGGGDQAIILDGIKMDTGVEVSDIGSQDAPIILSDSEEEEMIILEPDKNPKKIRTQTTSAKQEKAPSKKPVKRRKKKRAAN
UniProt Q9Y3B2, whole entry, looked up: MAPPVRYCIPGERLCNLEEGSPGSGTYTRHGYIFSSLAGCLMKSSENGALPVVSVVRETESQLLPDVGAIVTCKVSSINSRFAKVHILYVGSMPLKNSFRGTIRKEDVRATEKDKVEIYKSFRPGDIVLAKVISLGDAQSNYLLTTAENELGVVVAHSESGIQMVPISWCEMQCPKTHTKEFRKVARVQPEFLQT
UniProt Q9UPT5: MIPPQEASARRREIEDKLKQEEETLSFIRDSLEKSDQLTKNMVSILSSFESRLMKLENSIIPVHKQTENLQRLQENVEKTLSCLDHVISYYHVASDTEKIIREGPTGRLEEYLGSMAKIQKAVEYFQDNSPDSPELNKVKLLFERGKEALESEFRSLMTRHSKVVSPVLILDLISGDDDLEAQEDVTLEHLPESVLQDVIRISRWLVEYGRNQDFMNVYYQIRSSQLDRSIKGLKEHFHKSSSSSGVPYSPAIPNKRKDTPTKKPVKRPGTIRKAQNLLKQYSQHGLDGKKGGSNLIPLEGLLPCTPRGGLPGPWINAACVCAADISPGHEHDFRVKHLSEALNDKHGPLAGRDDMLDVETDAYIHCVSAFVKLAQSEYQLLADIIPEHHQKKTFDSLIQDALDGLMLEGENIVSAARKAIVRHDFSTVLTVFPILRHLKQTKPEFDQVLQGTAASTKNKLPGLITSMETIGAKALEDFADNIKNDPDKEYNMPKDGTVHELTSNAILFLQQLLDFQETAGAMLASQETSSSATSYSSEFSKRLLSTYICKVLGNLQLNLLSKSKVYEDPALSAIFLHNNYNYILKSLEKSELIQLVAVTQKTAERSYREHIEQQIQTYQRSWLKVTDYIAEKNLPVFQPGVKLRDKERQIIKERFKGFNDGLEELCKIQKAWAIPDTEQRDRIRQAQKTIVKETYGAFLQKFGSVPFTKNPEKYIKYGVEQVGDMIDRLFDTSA
UniProt Q01780: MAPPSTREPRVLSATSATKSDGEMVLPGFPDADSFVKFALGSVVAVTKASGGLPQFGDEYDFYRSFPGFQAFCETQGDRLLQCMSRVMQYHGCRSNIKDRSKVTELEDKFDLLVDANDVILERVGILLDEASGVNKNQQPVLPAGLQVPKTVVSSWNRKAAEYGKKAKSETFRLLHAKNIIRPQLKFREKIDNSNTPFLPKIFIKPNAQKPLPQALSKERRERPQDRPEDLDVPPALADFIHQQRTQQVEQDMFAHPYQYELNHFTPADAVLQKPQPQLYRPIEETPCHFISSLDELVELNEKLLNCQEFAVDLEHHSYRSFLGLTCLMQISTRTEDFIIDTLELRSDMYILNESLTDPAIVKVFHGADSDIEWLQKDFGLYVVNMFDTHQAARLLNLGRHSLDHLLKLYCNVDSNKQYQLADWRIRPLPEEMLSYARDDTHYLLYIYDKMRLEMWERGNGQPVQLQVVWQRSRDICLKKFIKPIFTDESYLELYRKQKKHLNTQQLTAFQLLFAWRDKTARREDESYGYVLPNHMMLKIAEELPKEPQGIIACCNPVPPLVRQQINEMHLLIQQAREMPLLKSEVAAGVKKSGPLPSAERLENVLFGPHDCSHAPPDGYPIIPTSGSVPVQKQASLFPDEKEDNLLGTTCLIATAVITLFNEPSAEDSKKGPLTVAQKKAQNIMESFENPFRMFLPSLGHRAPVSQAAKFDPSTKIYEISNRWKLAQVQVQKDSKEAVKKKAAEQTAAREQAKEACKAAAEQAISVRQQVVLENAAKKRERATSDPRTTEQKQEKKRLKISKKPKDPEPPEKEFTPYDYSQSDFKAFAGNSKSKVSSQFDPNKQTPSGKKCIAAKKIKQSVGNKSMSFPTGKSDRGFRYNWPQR

| Target | probe-labelled cysteine peptide fold change (10 µM) | probe-labelled cysteine peptide fold change (50 µM) |
| --- | --- | --- |
| EZH2_Q15910_324_NTETALDNKPCGPQCYQHLEGAK (UniProt Q15910) | 0.251 | -0.196 |
| FADD_Q13158_168_SCQMNLVADLVQEVQQAR (UniProt Q13158) | -0.313 | -0.17 |
| ETFB_P38117_42_HSMNPFCEIAVEEAVR (UniProt P38117) | -0.0939 | 0.0327 |
| FAM126A_Q9BYI3_401_ETTGESCK (UniProt Q9BYI3) | -0.493 | -1.16 |
| FABP5_Q01469_67_TTQFSCTLGEK (UniProt Q01469) | 0.268 | 0.0805 |
| EXTL3_O43909_400_LDQVLVEFTCK (UniProt O43909) | -0.327 | 0.705 |
| FAM102B_Q5T8I3_222_VSGYSTCHSR (UniProt Q5T8I3) | -0.179 | -0.188 |
| ERLEC1_Q96DZ1_113_QSSCSYR (UniProt Q96DZ1) | -0.0664 | 0.18 |
| EZH2_Q15910_83_ECSVTSDLDFPTQVIPLK (UniProt Q15910) | 0.0829 | 0.0211 |
| EXOSC9_Q06265_158_VDLHLLNHDGNIIDAASIAAIVALCHFR (UniProt Q06265) | 0.286 | 0.191 |
| EXOSC1_Q9Y3B2_73_ETESQLLPDVGAIVTCK (UniProt Q9Y3B2) | -0.0568 | 0.13 |
| EXOC7_Q9UPT5-2_285_RPGRDDMLDVETDAYIHCVSAFVK (UniProt Q9UPT5) | 0.0993 | 0.0266 |
| FAM111B_Q6SJ93_183_QCENPNMECILFHVVAIGR (UniProt Q6SJ93) | -0.0108 | 0.113 |
| EXOSC10_Q01780_327_SFLGLTCLMQISTR (UniProt Q01780) | 0.419 | 0.333 |

A second format for some results above.
Target	probe-labelled cysteine peptide fold change (10 µM)	probe-labelled cysteine peptide fold change (50 µM)
EZH2_Q15910_324_NTETALDNKPCGPQCYQHLEGAK (UniProt Q15910)	0.251	-0.196
FAM126A_Q9BYI3_401_ETTGESCK (UniProt Q9BYI3)	-0.493	-1.16

From the supplement of paper PMC12067093, “Discovery and optimisation of a covalent ligand for TRIM25 and its application to targeted protein ubiquitination” (Chemical Science, 2025)
